Measurements reported in PubChem BioAssay AID1259289 (Sanger Institute, 2017)
The deposit covers 794 reagents; below is an unselected part. Of all reagents, 16 (2%) got an active call. 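Active marks cell loss from silencing alone; drug synergy shows only in the synergy scores, not the calls.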 Not all columns of the deposit are shown. Reagent sequences are not shown. The record does not give: the amount of reagent, the time to read-out.

Screen: 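Find kinases whose loss adds to targeted drugs in killing bowel cancer cells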 (primary screen)
Cells: human LS513 colorectal cancer cells
Reagents: siRNA pool against human genes
Challenge: anchor drug BYL719 at 1 µM, cetuximab at 5 µg/ml or trametinib at 10 nM, or DMSO vehicle alone; exposure time not given
Read-out: 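Cell survival as a fraction of the non-targeting pool, replicate means; robust z-score for silencing alone under DMSO; synergy score for each of BYL719, cetuximab and trametinib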
Reading the numbers: robust z-score, siRNA alone (DMSO): higher = more viable cells; strongly negative means essential
Rule for the call: 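Called essential when silencing alone under DMSO gives a robust z-score below -3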
Calls: active = essential (knock-down alone); inactive = not essential

Gene | robust z-score, siRNA alone (DMSO) | outcome
MAPK10 | 0.561 | inactive
NME1 | 0.561 | inactive
CLK3 | -0.054 | inactive
PGK2 | 0.561 | inactive
DGKK | 0.561 | inactive
DYRK4 | 0.561 | inactive
DGKI | 0.561 | inactive
HK2 | -0.667 | inactive
FN1 | 0.561 | inactive
DGKQ | 0.561 | inactive
AGK | 0.561 | inactive
AMHR2 | 0.561 | inactive
CDC42BPG | 0.561 | inactive
MAP3K6 | 0.561 | inactive
DSTYK | 0.561 | inactive
BUB1 | 0.561 | inactive
RBM10 | -1.27 | inactive
PAPSS2 | 0.561 | inactive
KMT2B | 0.561 | inactive
RUNX1 | -2.74 | inactive
STAG2 | 0.561 | inactive
HUS1 | 0.561 | inactive
GSK3B | 0.561 | inactive
BRAF | -0.205 | inactive
MAPK4 | 0.139 | inactive
PASK | 0.561 | inactive
BRSK2 | 0.561 | inactive
FGFR1 | 0.561 | inactive
CDK3 | -0.309 | inactive
MARK2 | 0.561 | inactive
EPHB2 | 0.561 | inactive
TNK1 | 0.561 | inactive
RPS6KA5 | 0.561 | inactive
STK31 | -0.799 | inactive
MST1R | 0.561 | inactive
AMER1 | 0.561 | inactive
DYRK3 | 0.247 | inactive
GAK | 0.561 | inactive
PFKM | 0.561 | inactive
DGKG | 0.561 | inactive
FGFR2 | 0.147 | inactive
KIT | 0.561 | inactive
NUAK1 | -2.55 | inactive
SHPK | 0.561 | inactive
PCBP1 | 0.561 | inactive
MAP4K4 | 0.561 | inactive
NUAK2 | 0.561 | inactive
GUK1 | 0.561 | inactive
MAP4K1 | -1.15 | inactive
STK4 | 0.561 | inactive

Reprinted from the entries so far for reference:
Gene | robust z-score, siRNA alone (DMSO) | outcome
DGKQ | 0.561 | inactive
AGK | 0.561 | inactive
AMHR2 | 0.561 | inactive
CDC42BPG | 0.561 | inactive
MAP3K6 | 0.561 | inactive
